PMC11766031
These are yes or no findings as the source states them, for the method shown. In cells and extracts the contact can be indirect. Some results given as binding are weak or reduced against the parent protein; the word gives no strength. For some assays here: Tags and fused reporters may be left off the sequences shown.

The chains behind the UniProt entries cited, without tags or fusion partners.
UniProt P46937: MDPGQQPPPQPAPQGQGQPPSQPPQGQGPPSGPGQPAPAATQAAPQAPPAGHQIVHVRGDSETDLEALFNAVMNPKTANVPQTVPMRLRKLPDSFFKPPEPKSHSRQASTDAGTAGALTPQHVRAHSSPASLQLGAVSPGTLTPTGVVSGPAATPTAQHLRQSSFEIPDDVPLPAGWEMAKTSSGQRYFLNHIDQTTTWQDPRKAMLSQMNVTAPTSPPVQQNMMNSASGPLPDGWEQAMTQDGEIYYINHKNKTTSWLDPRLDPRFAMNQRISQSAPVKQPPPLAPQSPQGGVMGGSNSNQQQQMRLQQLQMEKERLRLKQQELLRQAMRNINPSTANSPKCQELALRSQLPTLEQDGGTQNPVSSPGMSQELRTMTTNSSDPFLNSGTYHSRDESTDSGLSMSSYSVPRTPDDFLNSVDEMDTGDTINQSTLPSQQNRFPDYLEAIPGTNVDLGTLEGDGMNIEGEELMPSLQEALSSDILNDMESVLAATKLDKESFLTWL
UniProt Q9GZV5: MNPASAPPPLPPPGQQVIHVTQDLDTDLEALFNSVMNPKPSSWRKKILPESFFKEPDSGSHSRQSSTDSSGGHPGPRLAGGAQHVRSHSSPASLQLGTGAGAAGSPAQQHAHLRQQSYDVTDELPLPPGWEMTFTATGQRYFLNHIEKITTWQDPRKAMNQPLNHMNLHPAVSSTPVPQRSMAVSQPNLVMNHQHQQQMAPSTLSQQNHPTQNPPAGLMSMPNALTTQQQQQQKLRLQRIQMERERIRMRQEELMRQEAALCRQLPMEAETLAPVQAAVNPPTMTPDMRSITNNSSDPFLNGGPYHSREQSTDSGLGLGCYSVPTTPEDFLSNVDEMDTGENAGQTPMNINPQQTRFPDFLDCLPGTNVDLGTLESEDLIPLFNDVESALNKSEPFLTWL

Columns and labels:
[1] = target: yes-associated protein (YAP), endogenous (human (endogenous in HepG2, HuH6, HLF)) (UniProt P46937); assay: proximity ligation; Duolink PLA on fixed, permeabilised HepG2, HuH6 and HLF cells with YAP and MPP5 antibodies; single antibody incubations as controls
[2] = target: yes-associated protein (YAP), endogenous (human (endogenous in HepG2, HuH6, HLF)) (UniProt P46937); assay: co-IP; endogenous YAP or TAZ precipitated from HepG2 cells, MPP5 detected; rabbit serum IgG as negative control
[3] = target: TAZ, overexpressed in HepG2 cells (UniProt Q9GZV5); assay: co-IP; after overexpression of YAP or TAZ for 48 h in HepG2 cells; rabbit serum IgG as negative control
[4] = target: YAP, overexpressed in HepG2 cells (UniProt P46937); assay: as above
HA-tagged YAP = HA-tagged YAP (UniProt P46937); assay: co-IP; co-expression of HA-tagged YAP and Flag-tagged MPP5 isoforms for 48 h; YAP precipitated with an HA-specific antibody, MPP5 isoforms detected

B1: membrane protein palmitoylated 5 (MPP5), endogenous (protein, UniProt Q8N3R9 1-675)
chain: MTTSHMNGHVTEESDSEVKNVDLASPEEHQKHREMAVDCPGDLGTRMMPIRRSAQLERIRQQQEDMRRRREEEGKKQELDLNSSMRLKKLAQIPPKTGIDNPMFDTEEGIVLESPHYAVKILEIEDLFSSLKHIQHTLVDSQSQEDISLLLQLVQNKDFQNAFKIHNAITVHMNKASPPFPLISNAQDLAQEVQTVLKPVHHKEGQELTALLNTPHIQALLLAHDKVAEQEMQLEPITDERVYESIGQYGGETVKIVRIEKARDIPLGATVRNEMDSVIISRIVKGGAAEKSGLLHEGDEVLEINGIEIRGKDVNEVFDLLSDMHGTLTFVLIPSQQIKPPPAKETVIHVKAHFDYDPSDDPYVPCRELGLSFQKGDILHVISQEDPNWWQAYREGDEDNQPLAGLVPGKSFQQQREAMKQTIEEDKEPEKSGKLWCAKKNKKKRKKVLYNANKNDDYDNEEILTYEEMSLYHQPANRKRPIILIGPQNCGQNELRQRLMNKEKDRFASAVPHTTRSRRDQEVAGRDYHFVSRQAFEADIAAGKFIEHGEFEKNLYGTSIDSVRQVINSGKICLLSLRTQSLKTLRNSDLKPYIIFIAPPSQERLRALLAKEGKNPKPEELREIIEKTREMEQNNGHYFDTAIVNSDLDKAYQELLRLINKLDTEPQWVPSTWLR
binding [1]: binds | binding [2]: binds | binding [3]: binds | binding [4]: binds

B2: Flag-tagged MPP5 (non-deleted isoform) (protein, UniProt Q8N3R9 1-675)
chain: MTTSHMNGHVTEESDSEVKNVDLASPEEHQKHREMAVDCPGDLGTRMMPIRRSAQLERIRQQQEDMRRRREEEGKKQELDLNSSMRLKKLAQIPPKTGIDNPMFDTEEGIVLESPHYAVKILEIEDLFSSLKHIQHTLVDSQSQEDISLLLQLVQNKDFQNAFKIHNAITVHMNKASPPFPLISNAQDLAQEVQTVLKPVHHKEGQELTALLNTPHIQALLLAHDKVAEQEMQLEPITDERVYESIGQYGGETVKIVRIEKARDIPLGATVRNEMDSVIISRIVKGGAAEKSGLLHEGDEVLEINGIEIRGKDVNEVFDLLSDMHGTLTFVLIPSQQIKPPPAKETVIHVKAHFDYDPSDDPYVPCRELGLSFQKGDILHVISQEDPNWWQAYREGDEDNQPLAGLVPGKSFQQQREAMKQTIEEDKEPEKSGKLWCAKKNKKKRKKVLYNANKNDDYDNEEILTYEEMSLYHQPANRKRPIILIGPQNCGQNELRQRLMNKEKDRFASAVPHTTRSRRDQEVAGRDYHFVSRQAFEADIAAGKFIEHGEFEKNLYGTSIDSVRQVINSGKICLLSLRTQSLKTLRNSDLKPYIIFIAPPSQERLRALLAKEGKNPKPEELREIIEKTREMEQNNGHYFDTAIVNSDLDKAYQELLRLINKLDTEPQWVPSTWLR
binding (HA-tagged YAP): binds
